No constants are given. Whether binding was seen depends on the method and setting. Tags and fused reporters may be left off the sequences shown.
Target: T1, cMyc-tagged 65-kDa latent heparanase (human, UniProt Q9Y251 36-543)
T1 construct: heparanase, human, 65-kDa latent (unprocessed) form; also called cMyc-latent heparanase; latent cMyc-heparanase; source: medium conditioned by heparanase infected CHO cells, purified (heparin column)
T1 sequence (looked up): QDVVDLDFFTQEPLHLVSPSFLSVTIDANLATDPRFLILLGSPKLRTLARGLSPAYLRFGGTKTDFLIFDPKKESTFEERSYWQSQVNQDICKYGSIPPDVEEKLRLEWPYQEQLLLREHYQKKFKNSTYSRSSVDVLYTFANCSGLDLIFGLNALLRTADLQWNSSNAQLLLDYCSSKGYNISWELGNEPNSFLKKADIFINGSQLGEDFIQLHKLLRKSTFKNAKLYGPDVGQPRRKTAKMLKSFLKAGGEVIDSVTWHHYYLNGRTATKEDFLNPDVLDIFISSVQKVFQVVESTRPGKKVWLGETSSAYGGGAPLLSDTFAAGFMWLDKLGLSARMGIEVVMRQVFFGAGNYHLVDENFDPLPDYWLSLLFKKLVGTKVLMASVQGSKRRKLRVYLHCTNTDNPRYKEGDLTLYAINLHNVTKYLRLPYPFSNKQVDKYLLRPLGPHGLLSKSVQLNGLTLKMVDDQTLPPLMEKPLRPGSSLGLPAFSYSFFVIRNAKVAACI
Test: ELISA; plates coated with cMyc-heparanase (5 µg/ml), active heparanase (2 µg/ml) or resistin (5-10 µg/ml) in PBS; analyte 2 h at RT; detection with anti resistin, anti heparanase or anti cMyc antibody; also done in the presence of 0.1 mM DTT; both purified

Chains of the proteins cited; added tags and fusions are not shown. Residues count along the entry.
UniProt P41159, residues 22-167: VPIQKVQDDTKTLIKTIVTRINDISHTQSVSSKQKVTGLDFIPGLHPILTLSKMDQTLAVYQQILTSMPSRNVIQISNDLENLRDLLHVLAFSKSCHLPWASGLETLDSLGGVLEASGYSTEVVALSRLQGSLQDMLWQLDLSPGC

**Q.** “Human leptin expressed in E. coli (from UniProt P41159 22-167)” was tested. Which binding did it give?
**A.** Its binding is “no binding”.

— publication PMC3897609, “Heparanase Interacts with Resistin and Augments Its Activity” (PLoS ONE, 2014)
